Out of some 340,000 compounds screened, about 170 (0.05%) were called active. The shares of active, inactive and inconclusive entries below differ from those in the screen. Calls come from the whole dose curve; as a rule, active = well fitted inhibition curve with a large enough effect in the signal ratio, with a control signal flat (not every such curve was filed as active); inconclusive = small, poorly fitted or top-dose-only effect, or effect the other way, or a change in a side signal; inactive = flat fitted curve, though single readings scatter; the % refers to the signal ratio. A potency beside an inconclusive call is a rough fit, not a confirmed value.
Experiment: qHTS Assay to Find Inhibitors of Chronic Active B-Cell Receptor Signaling;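 for activity change, negative = inhibition: plate controls were basal doxycycline-induced cells for no effect and cells given 10 µM MG132 for full effect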
Conditions: ABC-DLBCL IkBa-CBG/CBR reporter, luminescence ratio (green luciferase fused to IkBa over red control in TMD8 lymphoma cells), 4 h
Method in brief: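 Concentration-response series (up to 46 uM) were applied to TMD8 dual-reporter cells for 4 h at 37C with doxycycline. Green/red ratio, after filter-overlap correction, defined %Activity; red signal alone was normalised to basal cells and zero luminescence.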

[1] = activity change, negative = inhibition: at 46.1 µM (top of the series)
Potency is the fitted concentration of half-maximal effect.

Compound: CCCCc1ncc(CN2CCC(n3nccc3NC(=O)c3ccccc3Cl)CC2)[nH]1
- activity change, negative = inhibition [1]: inconclusive: -7.9%

Compound: NC(=O)Nn1c(CCC(=O)O)ccc1-c1ccc(Br)cc1
- Potency [1]: inconclusive: 29.1 µM [falling, single point]

Compound: Cc1ccc(N2C(=O)CC(NNc3nc4ccccc4s3)C2=O)cc1C (stereo not drawn)
- activity change, negative = inhibition [1]: inactive

Compound: COc1ccccc1-n1c(-c2ccccc2)c[n+]2c1CCc1ccccc1-2
- activity change, negative = inhibition [1]: inconclusive: -8.39%
- activity change, negative = inhibition (at 46.1 µM (top of the series)): inactive: -0.446%

Compound: COc1cc(OC)cc(OCC(O)Cn2ccnc2)c1 (stereo not drawn)
- activity change, negative = inhibition [1]: inconclusive: 5.35%

Compound: NC(=O)c1ccccc1NS(=O)(=O)c1ccc2c(c1)OCCO2
- Potency [1]: inconclusive: 29.1 µM [falling, single point]

Compound: COc1ccc(-c2cc3nc(C)cc(-c4ccc(OC)cc4)n3n2)cc1
- Potency [1]: inconclusive: 11.2 µM [falling, partial curve]

Compound: Cc1[nH]c(=O)[nH]c(=O)c1Cc1cccc2ccccc12
- activity change, negative = inhibition [1]: inconclusive: -0.83%

Compound: CC(C)Oc1ccccc1C1NC(=O)CCC1[N+](=O)[O-] (stereo not drawn)
- activity change, negative = inhibition [1]: inconclusive: 7.53%

Compound: CN(CC(=O)Nc1ccc(F)cc1)C(=O)COc1ccccc1Cc1ccccc1
- activity change, negative = inhibition [1]: inconclusive: 8.39%

Compound: CCOc1ccc2ccccc2c1/C=N/NC(=O)CNC(=O)c1ccccc1O
- activity change, negative = inhibition [1]: inconclusive: 22.5%

Compound: CCOc1ccccc1C(=O)NCCCCCC(=O)O
- Potency [1]: inconclusive: 12.6 µM [falling, single point]

Compound: O=C(O)c1cccc(S(=O)(=O)Nc2ccc([N+](=O)[O-])cc2O)c1
- activity change, negative = inhibition [1]: inconclusive: -3.98%

Compound: CC(NC(=O)COC(=O)CNC(=O)c1ccc(-c2ccccc2)cc1)c1ccccc1 (stereo not drawn)
- Potency [1]: inconclusive: 29.1 µM [falling, single point]

Compound: O=C(CCCCCNC(=O)c1ccccc1)N/N=C/c1ccccc1O
- activity change, negative = inhibition [1]: inconclusive: -0.0183%

Compound: Cc1ccc(S(=O)(=O)N(CCO)Cc2cc3ccc(C)c(C)c3[nH]c2=O)cc1
- activity change, negative = inhibition [1]: inconclusive: 0.6%

Compound: CN(CCS(=O)(=O)c1ccc(Cl)cc1)Cc1cccnc1
- activity change, negative = inhibition [1]: inactive

Compound: CS(=O)(=O)Nc1ccc(C(=O)NCCc2ccccc2)cc1
- activity change, negative = inhibition [1]: inconclusive: 4.4%

Compound: CC(C)N=Cc1c(O)[nH]c2ccccc12
- Potency [1]: inconclusive: 0.206 µM [rising, full curve, poor fit]

Compound: CCC1(c2ccc(Cl)cc2)NC(=S)N(c2ccccc2)N1 (stereo not drawn)
- Potency [1]: inconclusive: 18.4 µM [falling, single point]

Compound: O=C(c1cccs1)N1CCn2c1nc1ccccc12
- activity change, negative = inhibition [1]: inactive

Compound: COc1ccccc1CNC(=O)CN1C(=O)c2cccc(N)c2C1=O
- Potency [1]: inconclusive: 22.4 µM [falling, partial curve, poor fit]

Compound: CC(C)c1cccc(C(C)C)c1OCCCCN1CCCC1
- activity change, negative = inhibition [1]: inconclusive: 1.04%

Compound: O=C(c1ccc(Cl)cc1)C1CCCN(Cc2ccc(Oc3ncccn3)cc2)C1 (stereo not drawn)
- activity change, negative = inhibition [1]: inconclusive: 9.13%

Compound: CC(C)N(C(=O)[C@H]1C[C@H](CC(=O)NC(C)(C)C)C(=O)N2CCc3c([nH]c4cc(-c5ccco5)ccc34)[C@]12C)C(C)C
- activity change, negative = inhibition [1]: inconclusive: -9.35%

Compound: CC1(C)CC(=O)C=C(NNC(=O)c2ccccc2O)C1
- Potency [1]: inconclusive: 35.5 µM [rising, single point]

Compound: COc1ccc(OC)c(S(=O)(=O)N2CCC(C(=O)Nc3ccc(C)c(C)c3)CC2)c1
- activity change, negative = inhibition [1]: inconclusive: 5.42%

Compound: CCN(CC)S(=O)(=O)c1cccc(C(=O)N[C@H](C(=O)OCC(=O)Nc2ccccc2)C(C)C)c1
- Potency [1]: inconclusive: 16.4 µM [falling, partial curve, poor fit]

Compound: Cn1c(-c2c(N)n(CCc3ccccc3)c3nc4ccccc4nc23)nc2ccccc21
- Potency [1]: inconclusive: 0.146 µM [falling, full curve, poor fit]

Compound: CC1(C)NC(=O)N(CC(O)COc2ccccc2C(=O)N2CCCCC2)C1=O (stereo not drawn)
- activity change, negative = inhibition [1]: inactive

Compound: Fc1ccccc1/C=N/Nc1ccc(Cl)nn1
- activity change, negative = inhibition [1]: inconclusive: 8.11%

Compound: CCN(C(=O)c1ccco1)c1nc(CC(=O)Nc2ccc(Cl)cc2)cs1
- activity change, negative = inhibition [1]: inactive

Compound: CN(CCC1CCOCC1)Cc1nc(Cc2ccccc2F)no1
- activity change, negative = inhibition [1]: inconclusive: -0.487%

Compound: COc1ccc(/C=C2\OC(=O)c3c(OC)cccc32)cc1OC
- activity change, negative = inhibition [1]: inconclusive: -1.82%

Compound: COc1ccc(NC(=S)NCCCN2CCCC2=O)c(OC)c1
- activity change, negative = inhibition [1]: inactive

Compound: CCC(C)(C(=O)NC1CCCCC1)N(Cc1cccs1)C(=O)CC1NC(=O)NC1=O (stereo not drawn)
- Potency [1]: inconclusive: 18.4 µM [rising, partial curve, poor fit]

Compound: CC(=O)N1c2ccc(S(=O)(=O)NCCC(=O)Nc3ccc(F)cc3)cc2CC1C (stereo not drawn)
- activity change, negative = inhibition [1]: inactive

Compound: CC(=O)c1ccc(-c2ccc(C(=O)N3CCC(C(N)=O)CC3)o2)cc1
- activity change, negative = inhibition [1]: inconclusive: 1.72%

Compound: Cc1ccc(NC(=O)C[n+]2ccccc2)cc1C
- activity change, negative = inhibition [1]: inactive

Compound: CCOc1ccc(CNn2nnnc2N)cc1
- activity change, negative = inhibition [1]: inconclusive: 0.705%

Compound: Cc1cc(C)n(-c2nc(NCc3cccnc3)c3c4c(sc3n2)COC(C)(C)C4)n1
- activity change, negative = inhibition [1]: inconclusive: 1.73%

Compound: CCOc1ccc(CCNC(=O)COC(=O)c2ccc(F)c(S(=O)(=O)N3CCOCC3)c2)cc1OCC
- activity change, negative = inhibition [1]: inconclusive: -4.14%

Compound: O=C(C[n+]1cccc2ccccc21)c1ccccc1
- activity change, negative = inhibition [1]: inactive

Compound: COc1cc(NC(=O)C2CCCN(c3ncccn3)C2)cc(OC)c1 (stereo not drawn)
- Potency [1]: inconclusive: 7.31 µM [falling, partial curve, poor fit]

Compound: CCC(=O)N1CCCc2cc(S(=O)(=O)N3CCCc4ccccc43)ccc21
- activity change, negative = inhibition [1]: inactive

Compound: Cc1ccc(NC(=O)CNCc2ccccc2)cc1Br
- Potency [1]: inconclusive: 25.1 µM [falling, single point]

Compound: C/C(=N/OCO/N=C(\C)c1ccccc1)c1ccccc1
- activity change, negative = inhibition [1]: inconclusive: 18.6%

Compound: COc1ccc(OCC(=O)NNC(=O)c2cccs2)cc1
- activity change, negative = inhibition [1]: inactive

Compound: COC(=O)Cc1[nH]c(=S)[nH]c1C(=O)OC
- activity change, negative = inhibition [1]: inconclusive: 0.697%

Compound: O=c1c2ccccc2nc(SCc2ccccc2)n1Cc1ccco1
- activity change, negative = inhibition [1]: inconclusive: 0.665%

Compound: NCCNc1ccc(C(=O)N2c3ccccc3Sc3ccccc32)cc1[N+](=O)[O-]
- activity change, negative = inhibition [1]: inactive

Compound: CC1CCN(CCCCOc2ccccc2-c2ccccc2)CC1
- activity change, negative = inhibition [1]: inconclusive: -16%

From PubChem BioAssay AID493014 (National Center for Advancing Translational Sciences (NCATS), 2011)
